“And” between values parts separate entries of the source, which are not always exact repeats. Equal entries are not always repeated.
Tested on: SARS-CoV-2; call rule not given here
Assay type: cell-based
[1] = 1 uM, single replicate, relative to negative control DMSO
[2] = 5 uM, single replicate, relative to negative control DMSO

Cc1ccccc1-n1c(Cn2nc(-c3cccc(O)c3)c3c(N)ncnc32)nc2cccc(C)c2c1=O [PIK-294, pik-294]
HIT (2 Std, 1 uM) (1 uM): HIT
Average Infection (1 uM) (1 uM, average log2FC infection (n=3) relative to DMSO): −0.485
% Infection (1 uM) (1 uM, single replicate of triplicate): 18.59% and 21.04% and 16.9%
Normalized Infection (1 uM) [1]: 0.7078 and 0.8011 and 0.6433
log2FC Infection (1 uM) [1]: −0.4986 and −0.32 and −0.6365
Average Infection (5 uM) (5 uM, average log2FC infection (n=3) relative to DMSO): −0.3549
% Infection (5 uM) (5 uM, single replicate of triplicate): 15.69% and 11.58% and 9.607%
Normalized Infection (5 uM) [2]: 1.019 and 0.7518 and 0.6239
log2FC Infection (5 uM) [2]: 0.02752 and −0.4115 and −0.6806
HIT (overall, 1 or 5 uM): Yes
